About 5,400 (1.8%) of roughly 300,000 compounds were called active. Inconclusive results, whose numbers are uncertain, are shown with a selection of clear calls. The call rests on the fitted dose curve; tested in HEK293 cells. Potencies of inconclusive entries are doubtful fits and often do not repeat.
Experiment: qHTS for inhibitors of binding or entry into cells for Marburg Virus
Settings: Marburg virus pseudotyped entry inhibition, cell reporter; series mostly up to 37.8 µM
With `CC1CC(C)CN(C(=O)CN2C(=O)NC3(CCCCCC3)C2=O)C1` (configuration not stated) the Potency was “inactive”.
For `COc1cc(C=O)ccc1OCCSc1ccc(C)cc1`, the Potency was “inactive”.
In the case of `COc1ccc(-c2ccc(C(=O)O)c(=O)[nH]2)cc1`, the Potency is reported as inconclusive: 35.5 µM [activator, single point].
In the case of `COC(=O)CN(C#N)c1nc(OC)nc(N(C)C)n1`, the Potency is reported as inconclusive: 29.1 µM [inhibitor, single point].
For `COc1cc(/C=N/NC(=O)C(N)=O)ccc1OCC(=O)N1C(C)CCCC1C` (configuration not stated), the Potency was inconclusive: 3.16 µM [inhibitor, single point].
With `Cc1cnc(C(=O)Nc2ccccc2-c2ccc(C)o2)cn1` the Potency was “inactive”.
With `C=Cn1c(C(=O)O)cc(CC)c1-c1ccccc1` the Potency was inconclusive: 3.26 µM [inhibitor, partial curve, poor fit].
With `Cc1ccc(/C=C(\C#N)C(=O)Nc2ccccn2)o1` the Potency was inconclusive: 1.12 µM [activator, partial curve, poor fit].
In the case of `Cc1cc(C(=O)CSc2nnc(-c3ccc4c(c3)OCO4)o2)c(C)n1-c1ccc(F)cc1`, the Potency is reported as “inactive”.
In the case of `Cc1ncc(N=Nc2ccc(F)cc2)c(-c2ccc(Cl)cc2)n1`, the Potency is reported as “inactive”.
In the case of `COc1nccnc1NS(=O)(=O)c1ccc(NCc2cc(Br)ccc2O)cc1`, the Potency is reported as inconclusive: 31.6 µM [activator, single point].
In the case of `COc1ccc(NC(=S)N(Cc2ccc(C)cc2)Cc2ccccn2)cc1`, the Potency is reported as “inactive”.
In the case of `Cc1cccc(-n2c(C)cc(C=C3C(=O)c4ccccc4C3=O)c2C)c1`, the Potency is reported as inconclusive: 32.6 µM [inhibitor, single point].
In the case of `COc1c(Cl)cccc1-c1cn2ccccc2n1`, the Potency is reported as inconclusive: 22.4 µM [inhibitor, single point].
In the case of `COc1ccc(C(=NN)c2ccc(OC)cc2)cc1`, the Potency is reported as inconclusive: 5.62 µM [inhibitor, single point].
For `COc1ccccc1-n1cc(-c2ccc(C)cc2)[nH]c1=S`, the Potency was inconclusive: 0.199 µM [inhibitor, full curve, poor fit].
For `COc1ccc2[nH]c(C)c(C(=O)CN3C[C@@H](C)O[C@@H](C)C3)c2c1`, the Potency was “inactive”.
For `NC(=S)c1cc2cc(Br)ccc2oc1=O`, the Potency was inconclusive: 6.31 µM [inhibitor, single point].
In the case of `CC(=O)c1c(C)nc2ccccc2c1N`, the Potency is reported as “inactive”.
For `CCOC(=O)C1CCCN(C(=O)CSc2nc(C)cc(C)n2)C1` (configuration not stated), the Potency was “inactive”.
For `O=C(Cn1c(=O)[nH]c2ccsc2c1=O)N1CCN(c2ccc(F)cc2)CC1`, the Potency was inconclusive: 0.231 µM [inhibitor, full curve, poor fit].
In the case of `COCCOc1cc(Nc2nnc(C(F)(F)F)s2)c(Cl)cc1Cl`, the Potency is reported as inconclusive: 35.5 µM [inhibitor, partial curve, poor fit].
For `O=C(Nc1cc(S(=O)(=O)N2CCCCC2)ccc1N1CCOCC1)c1ccc(C(F)(F)F)cc1`, the Potency was “inactive”.
In the case of `Cc1onc(-c2c(Cl)cccc2Cl)c1/C(N)=N/OC(=O)C(C)(C)C`, the Potency is reported as “inactive”.
In the case of `Cc1ccc(C)c(N2C(=O)CC(Cc3ccccc3)C2=O)c1` (configuration not stated), the Potency is reported as “inactive”.
For `CCCN(CCC)S(=O)(=O)c1ccc(C(=O)NNc2nc(-c3ccccc3)c3cc(Br)ccc3n2)cc1`, the Potency was inconclusive: 29.1 µM [inhibitor, single point].
With `COc1ccc(N2Cc3cccc(C(=O)Nc4ccc(C(C)C)cc4)c3C2=O)cc1` the Potency was inconclusive: 2 µM [activator, full curve, poor fit].
With `CC1=NN(c2nc(N)nc(/C(C#N)=C/c3ccc([N+](=O)[O-])o3)n2)C(C)(C)C1` the Potency was inconclusive: 3.55 µM [inhibitor, single point].
With `Cc1cccc(N2CCN(C(=O)C3CCCCC3)CC2)c1C` the Potency was “inactive”.
In the case of `O=C(CCc1ccc(S(=O)(=O)NC2CCCCC2)cc1)NCc1ccccc1`, the Potency is reported as inconclusive: 35.5 µM [inhibitor, single point].
In the case of `COc1ccccc1CNc1cc(-c2ccccc2)nc2nncn12`, the Potency is reported as inconclusive: 35.5 µM [inhibitor, single point].
For `O=C(NC1CC1)C1CCN(c2nc3ccccc3s2)CC1`, the Potency was inconclusive: 0.891 µM [activator, full curve, poor fit].
For `Cc1cccc(OCC(=O)Nc2cc(C)c(C)cc2O)c1`, the Potency was “inactive”.
With `O=c1[nH]nc(Cc2ccc(-c3ccc(Cl)cc3)o2)c2ccccc12` the Potency was inconclusive: 10.3 µM [inhibitor, partial curve].
In the case of `CC1(C)Cc2c(cnn2-c2ccc(F)cc2)C(NC(=O)c2ccc(=O)oc2)C1` (configuration not stated), the Potency is reported as inconclusive: 8.91 µM [inhibitor, partial curve, poor fit].
With `Cc1cccc(NC(=O)CSCc2nc3c(nnn3Cc3ccc(F)cc3)c(=O)[nH]2)c1C` the Potency was “inactive”.
With `O=C(c1ccc(Cl)cc1)c1cnc(-c2ccc(Cl)cc2)s1` the Potency was “inactive”.
For `COC(=O)C1=C(C(=O)OC)[C@@H]2Nc3ccccc3[C@@]23C[C@@H](C(=O)OC)N(C(=O)Nc2ccccc2F)C3=N1`, the Potency was “inactive”.
For `CC1(C)CC(=O)/C(=C\c2cccc([N+](=O)[O-])c2)C(C)(C)N1`, the Potency was inconclusive: 20 µM [inhibitor, single point].
For `CC(CC(=O)c1ccc(F)cc1)N1CCN(c2ccccc2)CC1` (configuration not stated), the Potency was “inactive”.
With `Cc1ccc(NC(=S)NC(NC(=O)c2ccco2)C(Cl)(Cl)Cl)cc1` (configuration not stated) the Potency was inconclusive: 2.51 µM [inhibitor, full curve, poor fit].
With `O=C1C2CCCCN2C(=O)N1CCCN1CCN(c2cccc(C(F)(F)F)c2)CC1` (configuration not stated) the Potency was inconclusive: 31.6 µM [inhibitor, single point].
In the case of `O=C(NCC1(N2CCOCC2)CCCCC1)c1cccc(S(=O)(=O)N2CCc3ccccc3C2)c1`, the Potency is reported as inconclusive: 0.316 µM [activator, partial curve, poor fit].
For `O=C(NC1C(=O)NNC1c1ccccc1)c1ccccc1` (configuration not stated), the Potency was inconclusive: 0.631 µM [inhibitor, single point].
For `CCCSc1ncccc1C(=O)O`, the Potency was inconclusive: 2.82 µM [activator, single point].
For `Cc1ccc(C)c(OCC(=O)OCC(=O)Nc2c(C)nn(-c3ccccc3)c2C)c1`, the Potency was “inactive”.
With `Cc1ccc(Nc2nnc(SCC(=O)N(C)C3CCS(=O)(=O)C3)s2)cc1` (configuration not stated) the Potency was inconclusive: 3.16 µM [activator, single point].

Reference: PubChem BioAssay AID540276 (National Center for Advancing Translational Sciences (NCATS), 2011)
Potency means the concentration at half of the fitted maximal effect.
